Test results as given in patent US20240165226A1, “COMBINATION TREATMENT OF CD38-EXPRESSING TUMORS” (GENMAB A/S, priority 2006, published 2024).

Test system: human CD38
Assay: Epitope mapping using PEPSCAN method
Type: binding

B1: -024: human monoclonal IgG1 anti-CD38 antibody, VL region SEQ ID No:22 and VH region SEQ ID No:27 (antibody, listed as Homo sapiens, V domains shown)
VH: EVQLVQSGAEVKKPGESLKISCKGSGYSFSNYWIGWVRQMPGKGLEWMGIIYPHDSDARYSPSFQGQVTFSADKSISTAYLQWSSLKASDTAMYYCARHVGWGSRYWYFDLWGRGTLVTVSS
VL: EIVLTQSPATLSLSPGERATLSCRASQSVSSYLAWYQQKPGQAPGLLIYDASNRASGIPARFSGSGSGTDFTLTISSLEPEDFAVYYCQQRSNWPLTFGGGTKVEIK
  regions of human CD38 bound: SKRNIQFSCKNIYR and EKVQTLEAWVIHGG
